Results: the supplement of paper PMC8728848
The other results are listed elsewhere or left out.

Columns and labels:
Experiment in all cases: glycan array binding signal (z-score within array); higher = stronger binding
Details in all cases: glycan notation: IUPAC condensed, linker removed
[1] = target: Fuc(a1-3)[Gal3S(b1-4)]GlcNAc
How it was run: (§1)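 The Consortium for Functional Glycomics database supplied 3228 glycan arrays, of which those lacking an available protein sequence were dropped. The binding signal, a within-array Z-score, was averaged across arrays of the same protein sequence and across linkers. Negative scores can be read as non-binding.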

[2] = target: Fuc(a1-3)[Gal3S(b1-4)]GlcNAc6S
How it was run: as §1

[3] = target: Fuc(a1-3)[GalNAc(b1-4)]GlcNAc
How it was run: as §1

[4] = target: Fuc(a1-3)[GalNAc(b1-4)]GlcNAc6S
How it was run: as §1

Fuc(a1-4)GlcNAc = target: Fuc(a1-4)GlcNAc
How it was run: as §1

Fuc(b1-3)GlcNAc = target: Fuc(b1-3)GlcNAc
How it was run: as §1

Gal(a1-2)Gal = target: Gal(a1-2)Gal
How it was run: as §1

Gal(a1-3)Gal = target: Gal(a1-3)Gal
How it was run: as §1

Gal(a1-3)Gal(b1-3)GlcNAc = target: Gal(a1-3)Gal(b1-3)GlcNAc
How it was run: as §1

[5] = target: Gal(a1-3)Gal(b1-3)GlcNAc(b1-2)Man
How it was run: as §1

[6] = target: Gal(a1-3)Gal(b1-3)GlcNAc(b1-2)Man(a1-3)[Gal(a1-3)Gal(b1-3)GlcNAc(b1-2)Man(a1-6)]Man(b1-4)GlcNAc(b1-4)GlcNAc
How it was run: as §1

[7] = target: Gal(a1-3)Gal(b1-3)GlcNAc(b1-3)GalNAc
How it was run: as §1

[8] = target: Gal(a1-3)Gal(b1-3)GlcNAc(b1-6)GalNAc
How it was run: as §1

[9] = target: Gal(a1-3)Gal(b1-3)[Fuc(a1-4)]GlcNAc(b1-2)Man(a1-3)[Gal(a1-3)Gal(b1-3)[Fuc(a1-4)]GlcNAc(b1-2)Man(a1-6)]Man(b1-4)GlcNAc(b1-4)GlcNAc
How it was run: as §1

Gal(a1-3)Gal(b1-4)Glc = target: Gal(a1-3)Gal(b1-4)Glc
How it was run: as §1

Gal(a1-3)Gal(b1-4)GlcNAc = target: Gal(a1-3)Gal(b1-4)GlcNAc
How it was run: as §1

[10] = target: Gal(a1-3)Gal(b1-4)GlcNAc(b1-2)Man
How it was run: as §1

[11] = target: Gal(a1-3)Gal(b1-4)GlcNAc(b1-2)Man(a1-3)[Gal(a1-3)Gal(b1-4)GlcNAc(b1-2)Man(a1-6)]Man(b1-4)GlcNAc(b1-4)GlcNAc
How it was run: as §1

[12] = target: Gal(a1-3)Gal(b1-4)GlcNAc(b1-3)GalNAc
How it was run: as §1

[13] = target: Gal(a1-3)Gal(b1-4)GlcNAc(b1-6)GalNAc
How it was run: as §1

[14] = target: Gal(a1-3)Gal(b1-4)[Fuc(a1-3)]GlcNAc
How it was run: as §1

[15] = target: Gal(a1-3)Gal(b1-4)[Fuc(a1-3)]GlcNAc(b1-2)Man(a1-3)[Gal(a1-3)Gal(b1-4)[Fuc(a1-3)]GlcNAc(b1-2)Man(a1-6)]Man(b1-4)GlcNAc(b1-4)GlcNAc
How it was run: as §1

Gal(a1-3)GalNAc = target: Gal(a1-3)GalNAc
How it was run: as §1

[16] = target: Gal(a1-3)[Gal(a1-4)]Gal(b1-4)GlcNAc
How it was run: as §1

[17] = target: Gal(a1-4)Gal(b1-3)GlcNAc(b1-2)Man(a1-3)[Gal(a1-4)Gal(b1-3)GlcNAc(b1-2)Man(a1-6)]Man(b1-4)GlcNAc(b1-4)GlcNAc
How it was run: as §1

Gal(a1-4)Gal(b1-4)Glc = target: Gal(a1-4)Gal(b1-4)Glc
How it was run: as §1

Gal(a1-4)Gal(b1-4)GlcNAc = target: Gal(a1-4)Gal(b1-4)GlcNAc
How it was run: as §1

[18] = target: Gal(a1-4)Gal(b1-4)GlcNAc(b1-2)Man(a1-3)[Gal(a1-4)Gal(b1-4)GlcNAc(b1-2)Man(a1-6)]Man(b1-4)GlcNAc(b1-4)GlcNAc
How it was run: as §1

[19] = target: Gal(a1-4)Gal(b1-4)GlcNAc(b1-3)Gal(b1-4)Glc
How it was run: as §1

Gal(a1-4)GlcNAc = target: Gal(a1-4)GlcNAc
How it was run: as §1

Gal(a1-6)Glc = target: Gal(a1-6)Glc
How it was run: as §1

Gal(b1-2)Gal = target: Gal(b1-2)Gal
How it was run: as §1

Gal(b1-3)Gal = target: Gal(b1-3)Gal
How it was run: as §1

Gal(b1-3)Gal(b1-4)GlcNAc = target: Gal(b1-3)Gal(b1-4)GlcNAc
How it was run: as §1

[20] = target: Gal(b1-3)Gal(b1-4)GlcNAc(b1-2)Man(a1-3)[Gal(b1-3)Gal(b1-4)GlcNAc(b1-2)Man(a1-6)]Man(b1-4)GlcNAc(b1-4)GlcNAc
How it was run: as §1

Gal(b1-3)GalNAc = target: Gal(b1-3)GalNAc
How it was run: as §1

[21] = target: Gal(b1-3)GalNAc(a1-3)[Fuc(a1-2)]Gal(b1-4)Glc
How it was run: as §1

[22] = target: Gal(b1-3)GalNAc(a1-3)[Fuc(a1-2)]Gal(b1-4)GlcNAc
How it was run: as §1

B1: MFG-E8 (Mus musculus), P21956 (protein)
chain: MQVSRVLAALCGMLLCASGLFAASGDFCDSSLCLNGGTCLTGQDNDIYCLCPEGFTGLVCNETERGPCSPNPCYNDAKCLVTLDTQRGDIFTEYICQCPVGYSGIHCETETNYYNLDGEYMFTTAVPNTAVPTPAPTPDLSNNLASRCSTQLGMEGGAIADSQISASSVYMGFMGLQRWGPELARLYRTGIVNAWTASNYDSKPWIQVNLLRKMRVSGVMTQGASRAGRAEYLKTFKVAYSLDGRKFEFIQDESGGDKEFLGNLDNNSLKVNMFNPTLEAQYIKLYPVSCHRGCTLRFELLGCELHGCSEPLGLKNNTIPDSQMSASSSYKTWNLRAFGWYPHLGRLDNQGKINAWTAQSNSAKEWLQVDLGTQRQVTGIITQGARDFGHIQYVASYKVAHSDDGVQWTVYEEQGSSKVFQGNLDNNSHKKNIFEKPFMARYVRVLPVSWHNRITLRLELLGC
In the case of B1, the “glycan array binding signal (z-score)” value [1] is reported as 0.045, the “glycan array binding signal (z-score)” value [2] is reported as -0.198 and the “glycan array binding signal (z-score)” value [3] is reported as -0.553. The “glycan array binding signal (z-score)” value [4] was -0.263, the “glycan array binding signal (z-score)” value (Fuc(a1-4)GlcNAc) was -0.73 and the “glycan array binding signal (z-score)” value (Fuc(b1-3)GlcNAc) was -0.416. For the same binder, the “glycan array binding signal (z-score)” value (Gal(a1-2)Gal) was 0.39, the “glycan array binding signal (z-score)” value (Gal(a1-3)Gal) was -0.538 and the “glycan array binding signal (z-score)” value (Gal(a1-3)Gal(b1-3)GlcNAc) was -0.404. For the same binder, the “glycan array binding signal (z-score)” value [5] was -0.334, the “glycan array binding signal (z-score)” value [6] was 0.914 and the “glycan array binding signal (z-score)” value [7] was 0.272. The “glycan array binding signal (z-score)” value [8] was -0.054, the “glycan array binding signal (z-score)” value [9] was 0.336 and the “glycan array binding signal (z-score)” value (Gal(a1-3)Gal(b1-4)Glc) was -0.244. For the same binder, the “glycan array binding signal (z-score)” value (Gal(a1-3)Gal(b1-4)GlcNAc) was -0.544, the “glycan array binding signal (z-score)” value [10] was -0.241 and the “glycan array binding signal (z-score)” value [11] was -0.052. For the same binder, the “glycan array binding signal (z-score)” value [12] was 0.348, the “glycan array binding signal (z-score)” value [13] was 0.616 and the “glycan array binding signal (z-score)” value [14] was -0.553. For the same binder, the “glycan array binding signal (z-score)” value [15] was 0.518, the “glycan array binding signal (z-score)” value (Gal(a1-3)GalNAc) was -0.548 and the “glycan array binding signal (z-score)” value [16] was 0.011. For the same binder, the “glycan array binding signal (z-score)” value [17] was -0.165, the “glycan array binding signal (z-score)” value (Gal(a1-4)Gal(b1-4)Glc) was 0.037 and the “glycan array binding signal (z-score)” value (Gal(a1-4)Gal(b1-4)GlcNAc) was -0.571. For the same binder, the “glycan array binding signal (z-score)” value [18] was 0.217, the “glycan array binding signal (z-score)” value [19] was -0.463 and the “glycan array binding signal (z-score)” value (Gal(a1-4)GlcNAc) was -0.686. The “glycan array binding signal (z-score)” value (Gal(a1-6)Glc) was 1.6, the “glycan array binding signal (z-score)” value (Gal(b1-2)Gal) was -0.037 and the “glycan array binding signal (z-score)” value (Gal(b1-3)Gal) was -0.354. The “glycan array binding signal (z-score)” value (Gal(b1-3)Gal(b1-4)GlcNAc) was -0.148, the “glycan array binding signal (z-score)” value [20] was -0.381 and the “glycan array binding signal (z-score)” value (Gal(b1-3)GalNAc) was -0.347. The “glycan array binding signal (z-score)” value [21] was 0.686 and the “glycan array binding signal (z-score)” value [22] was -0.266.
